# Tested on: NF-κB signaling pathway
# Assay: NF-κB-dependent luciferase activity in NF-κB/293/GFP-Luc cells treated with TNF-α
# Format: cell-based
# Conditions: rank among the 19 MLY compounds
# Procedure: First, the anti-inflammatory activity of MLY compounds on the NF-κB signaling pathway was examined using the NF-xB/293/GFP-LucTnl cell line (System Biosciences). This cell line is specifically designed for use in quantitatively monitoring (by luciferase intensity) transcriptional activation related to the NF-κB signal transduction pathway in vitro. Treatment of NF-κB/293/GFP-Luc™ cells with 10 ng/ml TNF-α for 18 hours induced strong activation of the NF-κB signal transduction pathway (FIGS. 8A and 8B). […] MLY2 and MLY8 induced a strongest 90% reduction of NF-κB activation the anti-inflammatory effect of MLY 2 and 8 was dose-related (FIG. 9). The dose to reduce the NF-κB activation by 50% was […] for M13, 5 μM for MLY2 and 11 μM for MLY8 (FIG. 9).
row,Structure (SMILES),Order of Activity
1,"CCCCCC(CC(=O)CCc1ccc(O)c(OC)c1)SC[C@H](NC(=O)[C@@H](N)CC(=O)O)C(=O)NCC(=O)O (stereo partly drawn) [MLY-18, Asp(alpha)-Cys(6-shogaol)-Gly]",(19)
2,"CCCCCC(CC(=O)CCc1ccc(O)c(OC)c1)SC[C@H](NC(=O)[C@@H](N)CCC(=O)O)C(=O)N[C@@H](Cc1ccc(O)cc1)C(=O)O (stereo partly drawn) [MLY-5, Glu(alpha)-Cys(6-shogaol)-Tyr]",(14)
3,"CCCCCC(CC(=O)CCc1ccc(O)c(OC)c1)SC[C@H](NC(=O)[C@@H](N)CCC(=O)O)C(=O)N[C@@H](CCSC)C(=O)O (stereo partly drawn) [MLY-13, Glu(alpha)-Cys(6-shogaol)-Met]",(10)
4,"CCCCCC(CC(=O)CCc1ccc(O)c(OC)c1)SC[C@H](NC(=O)[C@@H](N)CC(=O)O)C(=O)N[C@@H](Cc1c[nH]c2ccccc12)C(=O)O (stereo partly drawn) [MLY-11, Asp(alpha)-Cys(6-shogaol)-Trp]",(3)
5,"CCCCCC(CC(=O)CCc1ccc(O)c(OC)c1)SC[C@H](NC(=O)[C@@H](N)CCC(=O)O)C(=O)N[C@@H](Cc1c[nH]c2ccccc12)C(=O)O (stereo partly drawn) [MLY-4, Glu(alpha)-Cys(6-shogaol)-Trp]",(16)
6,"CCCCCC(CC(=O)CCc1ccc(O)c(OC)c1)SC[C@H](NC(=O)[C@@H](N)CC(=O)O)C(=O)N[C@@H](C)C(=O)O (stereo partly drawn) [MLY-19, Asp(alpha)-Cys(6-shogaol)-Ala]",(13)
7,"CCCCCC(CC(=O)CCc1ccc(O)c(OC)c1)SC[C@H](NC(=O)[C@@H](N)CC(=O)O)C(=O)N[C@@H](Cc1ccccc1)C(=O)O (stereo partly drawn) [MLY-6, Asp(alpha)-Cys(6-shogaol)-Phe]",(9)
8,"CCCCCC(CC(=O)CCc1ccc(O)c(OC)c1)SC[C@H](NC(=O)[C@@H](N)CCC(=O)O)C(=O)N[C@H](C(=O)O)[C@@H](C)CC (stereo partly drawn) [MLY-16, Glu(alpha)-Cys(6-shogaol)-Ile]",(15)
9,"CCCCCC(CC(=O)CCc1ccc(O)c(OC)c1)SC[C@H](NC(=O)[C@@H](N)CC(=O)O)C(=O)N1CCC[C@H]1C(=O)O (stereo partly drawn) [MLY-9, Asp(alpha)-Cys(6-shogaol)-Pro]",(18)
10,"CCCCCC(CC(=O)CCc1ccc(O)c(OC)c1)SC[C@H](NC(=O)[C@@H](N)CC(=O)O)C(=O)N[C@@H](CC(C)C)C(=O)O (stereo partly drawn) [MLY-7, Asp(alpha)-Cys(6-shogaol)-Leu]",(5)
11,"CCCCCC(CC(=O)CCc1ccc(O)c(OC)c1)SC[C@H](NC(=O)[C@@H](N)CC(=O)O)C(=O)N[C@H](C(=O)O)C(C)C (stereo partly drawn) [MLY-10, Asp(alpha)-Cys(6-shogaol)-Val]",(12)
12,"CCCCCC(CC(=O)CCc1ccc(O)c(OC)c1)SC[C@H](NC(=O)[C@@H](N)CC(=O)O)C(=O)N[C@H](C(=O)O)[C@@H](C)CC (stereo partly drawn) [MLY-14, Asp(alpha)-Cys(6-shogaol)-Ile]",(17)
13,"CCCCCC(CC(=O)CCc1ccc(O)c(OC)c1)SC[C@H](NC(=O)[C@@H](N)CCC(=O)O)C(=O)N[C@H](C(=O)O)C(C)C (stereo partly drawn) [MLY-17, Glu(alpha)-Cys(6-shogaol)-Val]",(6)
14,"CCCCCC(CC(=O)CCc1ccc(O)c(OC)c1)SC[C@H](NC(=O)[C@@H](N)CC(=O)O)C(=O)N[C@@H](Cc1ccc(O)cc1)C(=O)O (stereo partly drawn) [MLY-12, Asp(alpha)-Cys(6-shogaol)-Tyr]",(7)
15,"CCCCCC(CC(=O)CCc1ccc(O)c(OC)c1)SC[C@H](NC(=O)[C@@H](N)CCC(=O)O)C(=O)N[C@@H](CC(C)C)C(=O)O (stereo partly drawn) [MLY-2, Glu(alpha)-Cys(6-shogaol)-Leu]",(1)
16,"CCCCCC(CC(=O)CCc1ccc(O)c(OC)c1)SC[C@H](NC(=O)[C@@H](N)CC(=O)O)C(=O)N[C@@H](CCSC)C(=O)O (stereo partly drawn) [MLY-8, Asp(alpha)-Cys(6-shogaol)-Met]",(2)
17,"CCCCCC(CC(=O)CCc1ccc(O)c(OC)c1)SC[C@H](NC(=O)[C@@H](N)CCC(=O)O)C(=O)N1CCC[C@H]1C(=O)O (stereo partly drawn) [MLY-3, Glu(alpha)-Cys(6-shogaol)-Pro]",(11)
18,"CCCCCC(CC(=O)CCc1ccc(O)c(OC)c1)SC[C@H](NC(=O)[C@@H](N)CCC(=O)O)C(=O)N[C@@H](Cc1ccccc1)C(=O)O (stereo partly drawn) [MLY-15, Glu(alpha)-Cys(6-shogaol)-Phe]",(8)

# From patent publication US20260285903A1, “SYNTHESIZED BIOLOGICALLY ACTIVE COMPOUNDS AND METHODS OF MAKING AND USING” (Georgia State University Research Foundation, Inc., priority 2023, published 2026)
